Taken from: PubChem BioAssay AID1159584 (Peter MacCallum Cancer Centre, 2016)

Test: 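Genes that CDH1-null MCF10A cells selectively depend on to survive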 (primary screen)
System: human MCF10A breast epithelial cells, parental and CDH1-null
Knock-down reagent: siRNA against human genes
Detection: 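Cell viability by CellTiter-Glo ATP luminescence, each line scaled to the mean of mock wells across plates, then CDH1-null over parental ratio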
Scale: CDH1-null / parental viability ratio: higher = CDH1-null cells survive relatively better than parental; CDH1-null viability vs mock: higher = more viable CDH1-null cells; parental viability vs mock: higher = more viable parental cells
This is an unselected part of about 18,000 reagents tested. Not stated in the record: the amount of reagent, the time to read-out.

gene | CDH1-null / parental viability ratio | CDH1-null viability vs mock (fraction of mock) | parental viability vs mock (fraction of mock)
CFAP251 | 0.96 | 0.98 | 1.02
NDEL1 | 0.79 | 0.6 | 0.76
ADA2 | 0.94 | 0.85 | 0.9
SLC25A32 | 1.1 | 1.01 | 0.92
GPR146 | 1.32 | 1.12 | 0.85
GDF2 | 1.04 | 0.5 | 0.48
NQO1 | 1.05 | 1.05 | 1
TYROBP | 1.02 | 0.85 | 0.83
VXN | 0.87 | 0.69 | 0.79
TBX5 | 0.94 | 0.73 | 0.78
FLYWCH2 | 1.2 | 0.96 | 0.8
TRIM25 | 0.92 | 0.57 | 0.62
BLOC1S5 | 0.86 | 0.62 | 0.72
CHCHD6 | 1.2 | 1.04 | 0.87
ATP9A | 0.98 | 0.93 | 0.95
LMX1A | 0.98 | 0.86 | 0.88
FIBCD1 | 1.11 | 0.3 | 0.27
ZNF589 | 0.96 | 0.73 | 0.76
RNASEH2A | 1.3 | 1.04 | 0.8
PTPN2 | 1.29 | 1.01 | 0.78
IL17RD | 1.02 | 0.92 | 0.9
CTCFL | 1.14 | 1.03 | 0.9
DDAH2 | 0.73 | 0.46 | 0.63
XCR1 | 0.81 | 0.76 | 0.94
FFAR2 | 0.85 | 0.89 | 1.05
KRTAP9-4 | 1.19 | 0.88 | 0.74
TGFBR1 | 1 | 0.82 | 0.82
RTL6 | 1.1 | 0.9 | 0.82
RPL7A | 1.43 | 0.4 | 0.28
GOLT1A | 1.06 | 1.08 | 1.02
ICAM4 | 1.47 | 1.06 | 0.72
RAD51D | 1.08 | 0.82 | 0.76
FARSB | 0.84 | 0.76 | 0.9
ASCL4 | 1.24 | 0.89 | 0.72
SUGT1P4-STRA6LP-CCDC180 | 0.61 | 0.43 | 0.7
FXYD3 | 1.18 | 0.97 | 0.82
RANBP10 | 1.05 | 1.02 | 0.97
C3orf62 | 1 | 0.8 | 0.8
RANBP2 | 1.2 | 0.9 | 0.75
CREBRF | 0.74 | 0.46 | 0.62
PMF1 | 0.95 | 0.86 | 0.91
MAGIX | 0.81 | 0.46 | 0.57
EFHD2 | 1.45 | 0.42 | 0.29
RPL37 | 1.25 | 0.4 | 0.32
NHLH2 | 1.03 | 0.8 | 0.78
SLC27A4 | 0.82 | 0.72 | 0.88
ZNF613 | 1.02 | 0.5 | 0.49
GATB | 0.69 | 0.58 | 0.84
ACTR10 | 0.78 | 0.74 | 0.95
C6orf118 | 1.41 | 0.9 | 0.64
RPS20 | 1.36 | 0.3 | 0.22
PLPP4 | 1.28 | 0.74 | 0.58
MOB3A | 1.14 | 0.5 | 0.44
FOSL1 | 1.17 | 1.05 | 0.9
SERINC1 | 1.11 | 0.71 | 0.64
CXCL14 | 0.98 | 0.58 | 0.59
TRIP4 | 0.86 | 0.78 | 0.91
FASTKD3 | 1.08 | 0.94 | 0.87
CFHR4 | 1.06 | 1.01 | 0.95
ZNF415 | 0.65 | 0.4 | 0.62
CT47A9 | 0.9 | 0.57 | 0.63
SLC25A19 | 0.98 | 0.92 | 0.94
TUBB | 0.97 | 0.74 | 0.76
STRADA | 1.01 | 0.78 | 0.77
GPKOW | 1.62 | 0.63 | 0.39
ELF5 | 0.88 | 0.91 | 1.04
OR4C16 | 0.81 | 0.7 | 0.86
PCBD2 | 1.02 | 0.94 | 0.92

Entries above whose gene name begins with A or a (4):
gene | CDH1-null / parental viability ratio | CDH1-null viability vs mock (fraction of mock) | parental viability vs mock (fraction of mock)
ADA2 | 0.94 | 0.85 | 0.9
ATP9A | 0.98 | 0.93 | 0.95
ASCL4 | 1.24 | 0.89 | 0.72
ACTR10 | 0.78 | 0.74 | 0.95
